Assay results reported in PMC12561415, “ACSS2/AATF Drives Soluble FasL‐Mediated CD8^+ T Cell Apoptosis in Pancreatic Neuroendocrine Tumors” (Advanced Science, 2025).

Sequences of proteins named here, by UniProt entry; tags and fusion partners are left off.
UniProt Q9NR19: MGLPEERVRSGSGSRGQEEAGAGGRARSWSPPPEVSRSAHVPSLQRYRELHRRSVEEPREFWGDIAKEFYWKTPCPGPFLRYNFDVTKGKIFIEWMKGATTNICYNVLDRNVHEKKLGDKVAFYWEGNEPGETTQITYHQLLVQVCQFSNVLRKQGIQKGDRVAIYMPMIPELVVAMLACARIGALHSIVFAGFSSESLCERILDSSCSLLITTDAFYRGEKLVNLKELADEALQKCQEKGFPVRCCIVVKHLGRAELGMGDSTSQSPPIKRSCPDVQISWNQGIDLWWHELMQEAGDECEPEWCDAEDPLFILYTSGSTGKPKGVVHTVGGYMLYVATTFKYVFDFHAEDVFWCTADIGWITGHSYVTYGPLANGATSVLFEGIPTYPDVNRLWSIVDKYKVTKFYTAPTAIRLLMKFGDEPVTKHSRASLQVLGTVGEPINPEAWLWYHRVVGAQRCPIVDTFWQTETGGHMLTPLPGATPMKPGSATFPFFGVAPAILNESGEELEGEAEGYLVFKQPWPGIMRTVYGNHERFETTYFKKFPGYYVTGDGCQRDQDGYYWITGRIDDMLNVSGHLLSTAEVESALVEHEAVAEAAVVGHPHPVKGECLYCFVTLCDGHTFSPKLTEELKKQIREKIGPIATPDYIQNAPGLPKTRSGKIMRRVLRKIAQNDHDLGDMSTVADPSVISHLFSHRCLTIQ

Molecular target: Flag-ACSS2 (acetyl-CoA synthetase 2) (human) (UniProt Q9NR19)
Assay: affinity purification with mass spectrometry; whole-cell extract of BON-1 cells with stable Flag-ACSS2 expression (NP-40 lysis buffer, 4 °C); Flag-tag Protein IP Assay Kit with magnetic beads; label-free MS; ACSS2^Flag vs EV

B1: Recombinant human AATF (natural protein, UniProt Q9NY61 1-560, looked up)
chain: MAGPQPLALQLEQLLNPRPSEADPEADPEEATAARVIDRFDEGEDGEGDFLVVGSIRKLASASLLDTDKRYCGKTTSRKAWNEDHWEQTLPGSSDEEISDEEGSGDEDSEGLGLEEYDEDDLGAAEEQECGDHRESKKSRSHSAKTPGFSVQSISDFEKFTKGMDDLGSSEEEEDEESGMEEGDDAEDSQGESEEDRAGDRNSEDDGVVMTFSSVKVSEEVEKGRAVKNQIALWDQLLEGRIKLQKALLTTNQLPQPDVFPLFKDKGGPEFSSALKNSHKALKALLRSLVGLQEELLFQYPDTRYLVDGTKPNAGSEEISSEDDELVEEKKQQRRRVPAKRKLEMEDYPSFMAKRFADFTVYRNRTLQKWHDKTKLASGKLGKGFGAFERSILTQIDHILMDKERLLRRTQTKRSVYRVLGKPEPAAQPVPESLPGEPEILPQAPANAHLKDLDEEIFDDDDFYHQLLRELIERKTSSLDPNDQVAMGRQWLAIQKLRSKIHKKVDRKASKGRKLRFHVLSKLLSFMAPIDHTTMNDDARTELYRSLFGQLHPPDEGHGD
notes: Recombinant human AATF, the analyte in SPR; also called Che-1
binding: binds

Results are given in words; binding and its absence hold for the method and conditions named. Binding seen in cells or lysates may run through a third protein. A yes stands for co-enrichment or nearness to the bait. Other partners may have been found. Where a sequence is shown, tags or fusion partners need not be part of it.
